Reference: the supplement of paper PMC3334620
Over roughly 33,000 sequences, “E-score (-0.5 to 0.5)” has its median near -0.015; the highest 2% begin near 0.3. This is one part of the list.

Each sequence was assayed against T1, Abf1 (UniProt P14164) (assay: PBM E-score (8-mer binding enrichment) (E-score (-0.5 to 0.5)); higher = stronger / more preferred TF binding). Details: protein concentration: 200 nM; construct: GST-full length.
T1 sequence: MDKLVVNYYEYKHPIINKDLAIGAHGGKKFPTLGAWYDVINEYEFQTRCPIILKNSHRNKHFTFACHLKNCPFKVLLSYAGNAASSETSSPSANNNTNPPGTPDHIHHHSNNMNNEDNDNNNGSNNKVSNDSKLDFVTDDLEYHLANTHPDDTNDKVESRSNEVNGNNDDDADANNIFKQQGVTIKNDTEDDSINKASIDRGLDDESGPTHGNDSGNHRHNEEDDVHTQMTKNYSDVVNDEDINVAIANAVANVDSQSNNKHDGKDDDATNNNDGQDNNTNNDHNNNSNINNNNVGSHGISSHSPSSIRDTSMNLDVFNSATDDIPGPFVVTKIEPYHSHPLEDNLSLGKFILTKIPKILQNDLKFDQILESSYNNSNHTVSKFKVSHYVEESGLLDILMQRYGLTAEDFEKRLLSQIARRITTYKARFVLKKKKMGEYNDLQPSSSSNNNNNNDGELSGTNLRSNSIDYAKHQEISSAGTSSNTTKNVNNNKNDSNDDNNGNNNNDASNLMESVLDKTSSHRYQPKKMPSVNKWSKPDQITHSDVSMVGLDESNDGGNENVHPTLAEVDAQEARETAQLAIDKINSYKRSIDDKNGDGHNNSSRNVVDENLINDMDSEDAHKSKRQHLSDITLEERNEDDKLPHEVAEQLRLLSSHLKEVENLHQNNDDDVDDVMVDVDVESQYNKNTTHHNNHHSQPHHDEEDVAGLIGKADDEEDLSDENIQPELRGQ
In short: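 The E-score, a modified Wilcoxon-Mann-Whitney statistic, was computed by the Universal PBM Analysis Suite for every ungapped eight-base word pooled with its reverse complement. Scans behind it were normalised with masliner after bound GST-tagged yeast transcription factors were detected with fluorescent anti-GST. The proteins, at about 100-200 nM, had been applied to universal all-10-mer Agilent arrays made double-stranded by primer extension.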

| Sequence | PBM E-score |
| --- | --- |
| AATCGGTG | -0.0566 |
| AATAGCAG | -0.332 |
| AGGACACC | -0.149 |
| ATTCTATC | 0.127 |
| GTTCCAAA | 0.0989 |
| CTAGGGTA | -0.272 |
| ACCTCGAC | -0.00492 |
| GATCATGC | 0.062 |
| ACAGCGCG | -0.0729 |
| ATCTGTGC | -0.13 |
| CGAGGAGA | -0.0933 |
| CGCGCCTC | -0.14 |
| AGTAATGA | 0.143 |
| GCCCGACC | -0.277 |
| AGTAGATA | 0.199 |
| AAGTCAGT | -0.0904 |
| AGGAAGTC | -0.177 |
| AAGGCAAG | -0.115 |
| AGTTGCCC | 0.0764 |
| ACATTGAT | 0.23 |
| GGGAAAAA | 0.0859 |
| AGCCCACC | -0.246 |
| CACGCCAC | 0.00407 |
| AAGCACGA | 0.251 |
| CTGATTCC | -0.186 |

| Sequence | PBM E-score |
| --- | --- |
| GAGGGCGA | -0.35 |
| CAGAGGTC | -0.061 |
| CCCGATCC | -0.177 |
| AATAGTTG | 0.037 |
| GCATTTAC | -0.162 |
| AAAACAAA | 0.108 |
| CGTCACGC | 0.145 |
| GCTGGAAC | -0.187 |
| GCACGTGC | 0.14 |
| ACACCAAA | 0.113 |
| AGGTAACC | 0.00136 |
| CGGATTCC | -0.129 |
| ATACTATA | 0.137 |
| AAAATCCG | -0.00334 |
| GCGTCTGA | -0.202 |
| AAAATCGA | -0.0503 |
| CTGAGGCA | -0.217 |
| AACGATAT | 0.385 |
| CGATGCGC | 0.0746 |
| CGTAAAAG | 0.248 |
| CAACTCAA | 0.0787 |
| CGATCTTA | 0.153 |
| ACGGTCCT | -0.0643 |
| CGAAGAGC | 0.0864 |
| TTACGGAA | 0.124 |

A portion from further up, as a working copy:

| Sequence | PBM E-score |
| --- | --- |
| ATACTATA | 0.137 |
| AAAATCCG | -0.00334 |
| GCGTCTGA | -0.202 |
| AAAATCGA | -0.0503 |
| CTGAGGCA | -0.217 |
| AACGATAT | 0.385 |
| CGATGCGC | 0.0746 |

Additional results follow.

| Sequence | PBM E-score |
| --- | --- |
| TAGTCAAA | 0.12 |
| CATTGAGC | -0.227 |
| CCGCGTAA | -0.0337 |
| ATGCGCTA | 0.0225 |
| CTTAAGAC | 0.0704 |
| GCGTCAAC | 0.00871 |
| CACTAAGC | 0.12 |
| AGCTTGAT | -0.0353 |
| ATAGCAAG | -0.0758 |
| AGTGCCGG | -0.223 |
| AACCGTGT | 0.00767 |
| ACGAGACG | 0.246 |
| AAACCCAT | 0.129 |
| GTTTGCCA | 0.0189 |
| ATGATGGG | -0.0979 |
| CGGGGACA | -0.15 |
| CACGCAAG | 0.223 |
| ACTGCACC | -0.0706 |
| GTTAGTCA | 0.151 |
| AGTCCTGA | -0.0493 |
| GCTCTATA | -0.0921 |
| CGGTTTAC | -0.0155 |
| TTTAGAAA | 0.113 |
| CGATCTCC | 0.0735 |
| CTGACTGA | -0.165 |

| Sequence | PBM E-score |
| --- | --- |
| AATGGACT | -0.0774 |
| AATTATAT | 0.174 |
| AAAGTGGG | -0.106 |
| CAGCTAGC | -0.124 |
| AGAACAAA | 0.238 |
| CGCGCGAG | 0.00904 |
| TCAGCTAA | -0.0528 |
| CTAATCTC | 0.143 |
| GACCTGAA | -0.0785 |
| CACGAGAG | 0.0678 |
| AATGGGAT | -0.0703 |
| GATACATA | 0.209 |
| CGCATGTC | 0.156 |
| CCTTCCCC | -0.258 |
| CGTAACCA | 0.174 |
| CGGAACCG | 0.00149 |
| AAACGTTA | -0.058 |
| CCAAGGGC | -0.237 |
| ACACCAGA | 0.0543 |
| CGACACCA | 0.0266 |
| CGCGTAAG | -0.183 |
| ATTCGCCG | 0.00282 |
| CAATTATC | 0.19 |
| GTAGCGAA | 0.056 |
| CAGCGCCA | -0.213 |

A different layout for part of the listing above:
Sequence	PBM E-score
CGACACCA	0.0266
CGCGTAAG	-0.183
ATTCGCCG	0.00282
CAATTATC	0.19
GTAGCGAA	0.056
CAGCGCCA	-0.213

Continued.

| Sequence | PBM E-score |
| --- | --- |
| ATTGAGGG | -0.0677 |
| TCTTTAAA | 0.209 |
| AGGGTTTA | -0.00523 |
| ATATCTAG | 0.0162 |
| CTTCGTTA | 0.173 |
| CAGGTTAG | -0.077 |
| AGACTCAC | -0.23 |
| CCGCTCCC | -0.188 |
| ATAAGTAT | 0.228 |
| CCTATCGA | 0.0347 |
| CGGCCGCC | -0.12 |
| AATTGTGC | 0.0989 |
| GATGCCAA | -0.0889 |
| CCACGACG | 0.22 |
| CGTGCTCA | 0.12 |
| TAATAGGA | 0.0547 |
| GCGTACGA | 0.317 |
| CGTCTAGA | 0.065 |
| ACTTTATG | -0.068 |
| CTCCCACC | -0.257 |
| CGTCAGGC | -0.0236 |
| GAGGCCGA | -0.0525 |
| AAACATAG | -0.0521 |
| ACTTCTAG | -0.112 |
| TGACCACA | 0.0701 |

| Sequence | PBM E-score |
| --- | --- |
| GGCCGGCA | -0.157 |
| CGCACTCA | -0.013 |
| CGATAGAG | 0.151 |
| ATTCCAAA | 0.209 |
| ACAATAGA | -0.00162 |
| ACATGTTC | -0.0222 |
| GCCAGTAA | -0.0765 |
| ATTGGGGG | -0.339 |
| AGCCGTAG | 0.212 |
| CCATTGTC | -0.067 |
| AAGTGCGG | -0.0465 |
| CTCGCTTC | -0.0819 |
| ACGGTAGC | 0.182 |
| GGCGCAGA | -0.137 |
| CTACAACC | 0.119 |
| ACATATGG | -0.0557 |
| CAAACGTG | 0.0478 |
| AACGTCGA | 0.127 |
| GGCCGGAA | -0.243 |
| CACAATAG | 0.0247 |
| TAGCATAA | 0.0767 |
| GACCGTAA | 0.0816 |
| AGACGGAC | -0.0409 |
| AAGACGGG | 0.0614 |
| AAATCTTG | -0.00313 |

| Sequence | PBM E-score |
| --- | --- |
| TAGGACTA | -0.103 |
| CAGCTCTC | -0.271 |
| GCATTACC | -0.0384 |
| CAGCAGTA | -0.0254 |
| ATCCCCCA | -0.236 |
| AATTACGT | 0.127 |
| ATGTGATA | 0.291 |
| ACGAGCGC | 0.11 |
| AATTTGGC | -0.0368 |
| ACTGGAAG | -0.112 |
| GCCTAAGC | -0.184 |
| GAACGCCC | -0.126 |
| CGCCTCTA | -0.0982 |
| CCGACAGA | -0.00185 |
| GCAACAAA | -0.13 |
| CGAAGCTA | 0.0888 |
| ATGCTTGC | -0.0291 |
| ACATTACG | 0.16 |
| CCCCACAA | -0.227 |
| CTGTACAG | -0.187 |
| AGGATCCT | 0.163 |
| CTTTGGGA | -0.0244 |
| AGCGGATA | 0.0777 |
| ATCGGGGA | -0.199 |
| CGGCTCTC | -0.029 |

| Sequence | PBM E-score |
| --- | --- |
| GAGCTCAA | -0.11 |
| CGGCGCCC | -0.143 |
| ACCAAGAG | -0.181 |
| GGAATACA | -0.0854 |
| ACGTTCCT | 0.00976 |
| CTAACAAG | 0.0843 |
| GGCTAGAA | -0.138 |
| ACGCCCCT | -0.19 |
| AGAGGCGC | -0.201 |
| ACGACCAC | 0.131 |
| AGAGTGAA | -0.0316 |
| AACCCCCA | -0.296 |
| CATTTCTC | -0.00363 |
| GCACTGCC | -0.0234 |
| TGAGAAAA | 0.167 |
| GCGGCTCA | -0.0985 |
| CGTTATAG | 0.105 |
| ATGTGGTG | 0.157 |
| CAGCGGCC | -0.255 |
| AAACCGAT | -0.0616 |
| ACATATCG | 0.118 |
| CGCACCTA | -0.0566 |
| TACCCGAA | -0.0797 |
| CGTACTTC | 0.143 |
| ATAGGCAG | 0.0458 |

| Sequence | PBM E-score |
| --- | --- |
| ACAACAGA | -0.27 |
| GAGGTTCA | -0.0597 |
| AGCCCAGA | -0.266 |
| CCTAGCCG | -0.183 |
| CTAAAAAC | -0.0627 |
| GCGCGTCC | -0.185 |
| AACTTATC | 0.232 |
| ATCACCCC | 0.255 |
| CCACGTAG | -0.142 |
| CGTTAAAG | 0.276 |
| CGTGCTTC | 0.125 |
| TCGTGTCA | 0.326 |
| ACTGATTA | 0.107 |
| ACGTTAAA | 0.227 |
| AAACTATG | 0.0288 |
| CCCTGCGC | -0.0323 |
| GAGACTGC | -0.274 |
| GCGCTTCA | -0.12 |
| AAGGGGCG | -0.251 |

Reformatted in CSV form: entries from further up
Sequence,PBM E-score
ACATATCG,0.118
CGCACCTA,-0.0566
TACCCGAA,-0.0797
CGTACTTC,0.143
ATAGGCAG,0.0458
